From paper PMC7819943, “Rice protein-binding microarrays: a tool to detect cis-acting elements near promoter regions in rice” come the findings set out here.

By UniProt entry, the sequences of proteins in these tests, tags left out.
UniProt Q0JBA9, entry or part of it: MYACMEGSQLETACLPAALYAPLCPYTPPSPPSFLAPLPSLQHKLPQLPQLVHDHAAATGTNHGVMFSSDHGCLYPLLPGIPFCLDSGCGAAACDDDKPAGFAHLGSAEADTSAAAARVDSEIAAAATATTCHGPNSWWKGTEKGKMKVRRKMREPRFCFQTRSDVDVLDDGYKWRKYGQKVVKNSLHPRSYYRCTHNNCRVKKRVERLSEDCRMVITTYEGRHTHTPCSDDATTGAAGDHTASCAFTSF

The other results are listed elsewhere or left out.

This assay addresses OsWRKY34 (Oryza sativa, UniProt Q0JBA9 1-250). Description: protein-binding microarray (RPBM); PBS, 2% BSA, 51.3 ng/ul salmon testes DNA, 50 uM zinc acetate, 200 nM TF, 25 C, 1 h; high values mean tight binding. The conditions noted are these: protein: recombinant; tags: N-terminal polyhistidine and DsRed monomer fusion (pET32a); label: CyDye5-dUTP incorporated in the synthesized complementary strand; 3' TTTTT single-stranded linker to array surface; dsDNA, one strand shown. The essentials:
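Binding signal is defined as the fluorescence intensity of each feature in arbitrary units, read on an Axon 4000B scanner. Transcription factors with N-terminal polyhistidine and DsRed fusions came from E. coli BL21-CodonPlus and were purified on Ni–NTA. They were incubated at 200 nM for 1 h at 25 °C on a custom Agilent array that had been made double-stranded with Cy5-dUTP, with 50 µM zinc acetate present, and the array was washed.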
Consider “TGTCGTCCTTCAGGCCAACTTTGTCTTCCTTTGTTTCGACCGGAGTCACCTAGTGCAG”, for which the binding signal is 16400 fluorescence intensity (a.u.).
The figure for “TAAGTTAAACTCTTTGTCGCATGCATAACGTTTTCATTATCGGAGTCACCTAGTGCAG” is 9370 fluorescence intensity (a.u.); for “CATCACCACCATACAATCTCATGTTTTATTCTCAACTTATCGGAGTCACCTAGTGCAG” it is 8350 fluorescence intensity (a.u.).
As for “TACGTCATCCGTATTTGAGTCGGTTTTTATGTTTGTTCGCCGGAGTCACCTAGTGCAG”, the binding signal is 12800 fluorescence intensity (a.u.).
The figure for “CATACAAGTTAATAGGTTAGGTTGAGGGGTATTGAAGGGGCGGAGTCACCTAGTGCAG” is 8110 fluorescence intensity (a.u.); for “CTTGGGCTGCTAGTTCGGCAACGATAACACCTCTTCTGTGCGGAGTCACCTAGTGCAG” it is 8770 fluorescence intensity (a.u.).
The figure for “ATAAAAGGCCCACATTGCGAGCCCAGCCCAACTCCGCCACCGGAGTCACCTAGTGCAG” is 8230 fluorescence intensity (a.u.).
On to “AAACTACCATGGGACTTATATTGCTCCGGTTTTGATAGTTCGGAGTCACCTAGTGCAG”, for which the binding signal was 8480 fluorescence intensity (a.u.).
The figure for “TTCGGGGATTTTGTTTGTATGTTGAAGTTGGAAAGTAGATCGGAGTCACCTAGTGCAG” is 10700 fluorescence intensity (a.u.).
Then “CCGGAACAGCGCCGCCTCGTGTCCGCCACGCCATTTTTTTCGGAGTCACCTAGTGCAG”, with 9420 fluorescence intensity (a.u.); and “TGGTTTTCTATCAGCGTCGTCTATATTTGCTAGTTTGATTCGGAGTCACCTAGTGCAG”, with 10200 fluorescence intensity (a.u.); and “CTTCCTTAGTCCCGGTTGTTTTTTTTTTCATTGTTTTTTTCGGAGTCACCTAGTGCAG”, with 10000 fluorescence intensity (a.u.).
As for “CTTTTAATTCCTTGCACCTGTCTACTGCTAGACATGCAACCGGAGTCACCTAGTGCAG”, the binding signal is 8460 fluorescence intensity (a.u.).
On to “ACCTCGTCAGGTTTCCGTTCCGCCTCCGCCTCTGCTGCTCCGGAGTCACCTAGTGCAG”, for which the binding signal is 8330 fluorescence intensity (a.u.).
Then “ACTCCATGTTTTTGTCTGATTGAGTGCCCGTGCTCCGTCCCGGAGTCACCTAGTGCAG”, with 10200 fluorescence intensity (a.u.).
Consider “CAACGAGATGAACATGGAAACACGCCGCTACACTTCTCTCCGGAGTCACCTAGTGCAG”, for which the binding signal is 8160 fluorescence intensity (a.u.).
The figure for “CCGTGCGCATCCACCATGGCCTTCTTGTGCGCATCGATCACGGAGTCACCTAGTGCAG” is 9020 fluorescence intensity (a.u.); for “AGCGGGTGGGGTGTATAGGAGTACAGTTGTAGAGTCACCACGGAGTCACCTAGTGCAG” it is 10900 fluorescence intensity (a.u.).
On to “AAAGTGATGTGGTGGTGGAGTTGTGGGTATATGATTTTATCGGAGTCACCTAGTGCAG”, for which the binding signal is 8790 fluorescence intensity (a.u.).
The figure for “CGTGAACTACTTGACTCTTCTCTTCATGCGTTTTCTTCAGCGGAGTCACCTAGTGCAG” is 12100 fluorescence intensity (a.u.); for “TACTAGCTGATTTTGTCATTACCTTTTGGCCGTATTCGCCCGGAGTCACCTAGTGCAG” it is 10200 fluorescence intensity (a.u.); for “CCATCGAGCCATCAACCAACACGCTCTATCTGTTTACTCTCGGAGTCACCTAGTGCAG” it is 9460 fluorescence intensity (a.u.).
The figure for “CCACCACCACCCTCTCCACCTCCGCCACCACCAAAATCCGCGGAGTCACCTAGTGCAG” is 8850 fluorescence intensity (a.u.).
As for “CTTCGGTATTGTATAGATATGGGACTGTCTCCCGGAGGTTCGGAGTCACCTAGTGCAG”, the binding signal is 9840 fluorescence intensity (a.u.).
Then “ACCTGTATTTGTCATTATTTAGTGGACTCTGCTTAGTTCTCGGAGTCACCTAGTGCAG”, with 19300 fluorescence intensity (a.u.).
The figure for “ATATGTTCTCCTAATCCACCGACAGTTAAGTACCTTTTTTCGGAGTCACCTAGTGCAG” is 8600 fluorescence intensity (a.u.); for “TTCTATCTTGCTCGCTGTGGGCTTGGTGGCCTTGGAGTTGCGGAGTCACCTAGTGCAG” it is 8090 fluorescence intensity (a.u.); for “CACCTAGCACGAACACCCAACGCCGCCGCTCGATCTCATCCGGAGTCACCTAGTGCAG” it is 8920 fluorescence intensity (a.u.).
For the sequence “CCCACCTGCGTGGGGTCAACCGGTCAACGCGCCACACGCTCGGAGTCACCTAGTGCAG”, the binding signal is 9520 fluorescence intensity (a.u.).
As to “GTACCTTGTCCTATTTTCCATGCCAGCCAAGCATCCAACCCGGAGTCACCTAGTGCAG”, the binding signal was 8140 fluorescence intensity (a.u.).
Consider “ATATCTTCTCCTATCTCATTTCTCAACTGAATGACTCGATCGGAGTCACCTAGTGCAG”, for which the binding signal is 8430 fluorescence intensity (a.u.).
The figure for “ATCCAAACCCACGCACACACTCTTTTCTCTCCTCTCCTTCCGGAGTCACCTAGTGCAG” is 10500 fluorescence intensity (a.u.); for “CTCCAGTCCAGACTTGTTTAGTTTTAAACCTAAATTTTACCGGAGTCACCTAGTGCAG” it is 8050 fluorescence intensity (a.u.).
Turning to “GATTGTTTCCCTATTGAATTTCTGGTCGTTACCTAATTTGCGGAGTCACCTAGTGCAG”, the binding signal was 8090 fluorescence intensity (a.u.).
Then “AGCAGCCTACACTCGCCAACAAAAGTACTACCACCTCACGCGGAGTCACCTAGTGCAG”, with 8060 fluorescence intensity (a.u.).
As for “ACCTTTTCCCATCCCCTTTCCCTCGTTTTCCGCGTGCACGCGGAGTCACCTAGTGCAG”, the binding signal was 8590 fluorescence intensity (a.u.).
Then “CGCACTATCGCTTGCTTTCCTTGGGCGTCGGTCCAGCCAACGGAGTCACCTAGTGCAG”, with 8160 fluorescence intensity (a.u.).
The figure for “CATTATTATTTTCTCTGTCAATATTTGATTCTAACCGATCCGGAGTCACCTAGTGCAG” is 8240 fluorescence intensity (a.u.).
On to “TTTATCCTCCTTTGACTTCCCACATATTTCTTTACCTACTCGGAGTCACCTAGTGCAG”, for which the binding signal is 9430 fluorescence intensity (a.u.).
For “GCTCCTCGTCGTCGTCTCTCTCTCCTGCCTAGCTCTGGCCCGGAGTCACCTAGTGCAG”, the binding signal was 9190 fluorescence intensity (a.u.).
As for “CGCGCGCGCGCGCGTACGTGGGAACAGAGAGCGGCGCCGACGGAGTCACCTAGTGCAG”, the binding signal is 27900 fluorescence intensity (a.u.).
The figure for “CTTTCTTTCTTTCTTTGTGCCCAACTCTGACACGACTCACCGGAGTCACCTAGTGCAG” is 10800 fluorescence intensity (a.u.).
